# These are yes or no findings as the source states them, for the method shown. Some entries that bind do so weakly or less than the wild type.
# Biological target: Cynomolgus OSM (cynomolgus)
# Assay: BIAcore kinetics
row,binding,Binder
1,binds,"9G2, murine anti-OSM mAb (antibody, V domains shown) VH: EVQLVESGGGLVEPGGSLKLSCAASGFTFSNYAMSWVRQTPEKRLEWVATISDGGSFTYYLDNVKGRFTISRDNAKNNLYLQMSHLKSDDTAMYYCARDVGHTTFWYFDVWGTGTTVTVSS VL: DIVLTQSPVFLVISLGQRATISCRASKSVSASGYNFMHWYQQKPGQPPKVLIKYASNLESGVPARFSGSGSGTDFTLNIHPVEEEDAVTYYCQHSREFPFTFGGGTKLEIK"
2,binds,"10G8 chimaera (antibody, human IgG1, kappa, V domains shown) VH: EMQLVESGEGLVEPGGSLKLSCAASGFTFSNYAMSWVRQTPEKSLEWVATISDGGSFTYYLDNVRGRFTISRDNAKNNLYLQMSHLKSDDTAMYYCARDVGHTTFWYFDVWGSGTLVTVSS VL: DIVLTQSPVFLVVSLGQRATISCRASKSVSAAGYNFMHWYQQKPGQPPKVLIKYASNLESGVPARFSGSGSGTDFTLNIHPVEEEDAVTYYCLHSREFPFTFGGGTNLEIKR"
3,binds,"anti human OSM mAb S168110G08(1)1A09 (10G8), murine (antibody, V domains shown) VH: EMQLVESGEGLVEPGGSLKLSCAASGFTFSNYAMSWVRQTPEKSLEWVATISDGGSFTYYLDNVRGRFTISRDNAKNNLYLQMSHLKSDDTAMYYCARDVGHTTFWYFDVWGSGTAVTVSS VL: DIVLTQSPVFLVVSLGQRATISCRASKSVSAAGYNFMHWYQQKPGQPPKVLIKYASNLESGVPARFSGSGSGTDFTLNIHPVEEEDAVTYYCLHSREFPFTFGGGTNLEIK"
4,binds,"9G2 chimaera (antibody, human IgG1, kappa, V domains shown) VH: EVQLVESGGGLVEPGGSLKLSCAASGFTFSNYAMSWVRQTPEKRLEWVATISDGGSFTYYLDNVKGRFTISRDNAKNNLYLQMSHLKSDDTAMYYCARDVGHTTFWYFDVWGTGTLVTVSS VL: DIVLTQSPVFLVISLGQRATISCRASKSVSASGYNFMHWYQQKPGQPPKVLIKYASNLESGVPARFSGSGSGTDFTLNIHPVEEEDAVTYYCQHSREFPFTFGGGTKLEIKR"

# Biological target: Cynomolgus OSM (cynomolgus)
# Assay: BIAcore, purified antibody
row,binding,Binder
1,binds,"Humanised 10G8 H0L1 (antibody, human IgG1, kappa, V domains shown) VH: EVQLVESGGGLVQPGGSLRLSCAASGFTFSNYAMSWVRQAPGKGLEWVATISDGGSFTYYLDNVRGRFTISRDNAKNSLYLQMNSLRAEDTAVYYCARDVGHTTFWYFDVWGRGTLVTVSS VL: DIVMTQSPDSLAVSLGERATINCRASKSVSAAGYNFMHWYQQKPGQPPKVLIYYASNLESGVPDRFSGSGSGTDFTLTISSLQAEDVAVYYCLHSREFPFTFGGGTKVEIKR"
2,binds,"Humanised 10G8 H2L1 (antibody, V domains shown) VH: EVQLVESGGGLVQPGGSLRLSCAASGFTFSNYAMSWVRQAPGKGLEWVATISDGGSFTYYLDNVRGRFTISRDNAKNSLYLQMNSLRAEDTAVYYCARDVGHTTFWYFDVWGSGTLVTVSS VL: DIVMTQSPDSLAVSLGERATINCRASKSVSAAGYNFMHWYQQKPGQPPKVLIYYASNLESGVPDRFSGSGSGTDFTLTISSLQAEDVAVYYCLHSREFPFTFGGGTKVEIK"
3,binds,"Humanised 10G8 H0L4 (antibody, V domains shown) VH: EVQLVESGGGLVQPGGSLRLSCAASGFTFSNYAMSWVRQAPGKGLEWVATISDGGSFTYYLDNVRGRFTISRDNAKNSLYLQMNSLRAEDTAVYYCARDVGHTTFWYFDVWGRGTLVTVSS VL: DIVMTQSPDSLAVSLGERATINCRASKSVSAAGYNFMHWYQQKPGQPPKVLIYYASNLESGVPDRFSGSGSGTDFTLTISSLQAEDVVVYYCLHSREFPFTFGGGTNVEIK"
4,binds,"Humanised 10G8 H2L4 (antibody, V domains shown) VH: EVQLVESGGGLVQPGGSLRLSCAASGFTFSNYAMSWVRQAPGKGLEWVATISDGGSFTYYLDNVRGRFTISRDNAKNSLYLQMNSLRAEDTAVYYCARDVGHTTFWYFDVWGSGTLVTVSS VL: DIVMTQSPDSLAVSLGERATINCRASKSVSAAGYNFMHWYQQKPGQPPKVLIYYASNLESGVPDRFSGSGSGTDFTLTISSLQAEDVVVYYCLHSREFPFTFGGGTNVEIK"
5,binds,"Humanised 10G8 H0(IGHV3-23)L1 (antibody, human IgG1, kappa, V domains shown) VH: EVQLVESGGGLVQPGGSLRLSCAASGFTFSSYAMSWVRQAPGKGLEWVATISDGGSFTYYLDNVRGRFTISRDNAKNSLYLQMNSLRAEDTAVYYCARDVGHTTFWYFDVWGRGTLVTVSS VL: DIVMTQSPDSLAVSLGERATINCRASKSVSAAGYNFMHWYQQKPGQPPKVLIYYASNLESGVPDRFSGSGSGTDFTLTISSLQAEDVAVYYCLHSREFPFTFGGGTKVEIKR"
6,binds,"Humanised 10G8 H1L4 (antibody, V domains shown) VH: EMQLVESGGGLVQPGGSLRLSCAASGFTFSNYAMSWVRQAPGKGLEWVATISDGGSFTYYLDNVRGRFTISRDNAKNSLYLQMNSLRAEDTAVYYCARDVGHTTFWYFDVWGRGTLVTVSS VL: DIVMTQSPDSLAVSLGERATINCRASKSVSAAGYNFMHWYQQKPGQPPKVLIYYASNLESGVPDRFSGSGSGTDFTLTISSLQAEDVVVYYCLHSREFPFTFGGGTNVEIK"
7,binds,"Humanised 10G8 H1L1 (antibody, V domains shown) VH: EMQLVESGGGLVQPGGSLRLSCAASGFTFSNYAMSWVRQAPGKGLEWVATISDGGSFTYYLDNVRGRFTISRDNAKNSLYLQMNSLRAEDTAVYYCARDVGHTTFWYFDVWGRGTLVTVSS VL: DIVMTQSPDSLAVSLGERATINCRASKSVSAAGYNFMHWYQQKPGQPPKVLIYYASNLESGVPDRFSGSGSGTDFTLTISSLQAEDVAVYYCLHSREFPFTFGGGTKVEIK"

# — patent US20130251724A1
